In patent publication US20020081614, “Functional genomics using zinc finger proteins” (Sangamo BioSciences, Inc., published 2002) one finds activity on this sequence (fold activation) data, which are given here for one sequence.

Construct, isoform or probe ends are uncertain for at least one entry. Where a protein sequence is shown, tags need not be part of it.

For the data set, the system named is T1, RAN control ZFP-VP16 (pcV-RAN) (synthetic construct).
T1 sequence: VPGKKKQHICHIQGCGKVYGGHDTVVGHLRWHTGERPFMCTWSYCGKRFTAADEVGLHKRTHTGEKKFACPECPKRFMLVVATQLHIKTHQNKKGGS
Briefly: activity in cells. Conditions: baseline control with no known DNA binding capability; fold 1 by definition; protein in cells; protein details: NLS, HSV VP16 activation domain, Flag; variant of M6-1892S site; only the site is given; counted as no effect.

As to “GGGGTTGAG (double strand) [reporter with three tandem M6-1892S sites (pGLP-VF471x3)]”, the activity on this sequence (fold activation) worked out at 1.
